Data from patent US20150374853A1.

Experiments:
Clathrin = test: pull-down with biotinylated H10 peptide, mass spectrometry; 'potential binding partners'
REB35 = test: as above

TNSIWYTAPYMF (biotinylated (position of the biotin not stated)) [H10 peptide, biotinylated version]
binding (Clathrin): binds | binding (REB35): binds

These are yes or no findings as the source states them, for the method shown. Binding seen in cells or lysates may run through a third protein. Here binding means that the protein was enriched with, or labelled near, the bait; the list need not be complete.
